Laboratory results from paper PMC4583993.
No constants are given. Whether binding was seen depends on the method and setting. Binding seen in cells or lysates may run through a third protein. Some entries that bind do so weakly or less than the wild type.

Chains of the proteins cited; added tags and fusions are not shown. Residues count along the entry.
UniProt Q9NPH3, residues 21-570: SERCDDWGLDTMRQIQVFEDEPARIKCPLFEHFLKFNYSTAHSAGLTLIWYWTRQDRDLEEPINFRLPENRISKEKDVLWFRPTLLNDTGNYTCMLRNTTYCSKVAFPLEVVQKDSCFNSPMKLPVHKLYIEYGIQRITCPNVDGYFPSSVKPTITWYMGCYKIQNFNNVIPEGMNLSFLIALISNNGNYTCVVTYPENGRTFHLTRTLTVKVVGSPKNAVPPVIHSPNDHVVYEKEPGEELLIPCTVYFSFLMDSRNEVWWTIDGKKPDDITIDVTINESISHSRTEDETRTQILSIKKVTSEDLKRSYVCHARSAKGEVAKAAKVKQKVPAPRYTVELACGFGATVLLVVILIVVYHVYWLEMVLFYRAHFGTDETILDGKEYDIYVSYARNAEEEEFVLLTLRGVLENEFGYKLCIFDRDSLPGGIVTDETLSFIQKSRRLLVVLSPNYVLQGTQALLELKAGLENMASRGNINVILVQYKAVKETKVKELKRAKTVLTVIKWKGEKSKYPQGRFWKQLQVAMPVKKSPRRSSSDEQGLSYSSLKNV

Biological target: IL-1 receptor accessory protein (IL-1IRAcP) (human (endogenous in KMH2)) (UniProt Q9NPH3)
Assay: co-IP; KMH2 lysate (20mM Tris pH 7.4, 1mM EGTA, 1mM EDTA, 2mM DTT, 0.5% TritonX-100) incubated with anti-IL-1IRAcP and Sepharose-G beads over night; blot developed with anti-IL-1IRAcP, stripped and developed with anti-IL-1R2

binding: binds
B1: IL-1 receptor type 2 (IL-1R2) (receptor, UniProt P27930 14-398)
chain: FTLQPAAHTGAARSCRFRGRHYKREFRLEGEPVALRCPQVPYWLWASVSPRINLTWHKNDSARTVPGEEETRMWAQDGALWLLPALQEDSGTYVCTTRNASYCDKMSIELRVFENTDAFLPFISYPQILTLSTSGVLVCPDLSEFTRDKTDVKIQWYKDSLLLDKDNEKFLSVRGTTHLLVHDVALEDAGYYRCVLTFAHEGQQYNITRSIELRIKKKKEETIPVIISPLKTISASLGSRLTIPCKVFLGTGTPLTTMLWWTANDTHIESAYPGGRVTEGPRQEYSENNENYIEVPLIFDPVTREDLHMDFKCVVHNTLSFQTLRTTVKEASSTFSWGIVLAPLSLAFLVLGGIWMHRRCKHRTGKADGLTVLWPHHQDFQSYPK
